Experimental data reported in paper PMC6547406.
Construct, isoform or probe ends are uncertain for at least one entry. For some of these results: At least one verdict rests on a figure or table, not on a statement of the authors.

Sequences of proteins named here, by UniProt entry; tags and fusion partners are left off. Residues count along the entry.
UniProt P61244, 22-103 R25C: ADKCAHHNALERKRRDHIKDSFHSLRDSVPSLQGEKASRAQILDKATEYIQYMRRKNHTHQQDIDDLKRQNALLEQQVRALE
UniProt P61244, 22-103 G55C: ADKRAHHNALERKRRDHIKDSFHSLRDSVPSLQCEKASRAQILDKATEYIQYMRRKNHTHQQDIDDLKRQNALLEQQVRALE
UniProt P61244, 22-103 R75C: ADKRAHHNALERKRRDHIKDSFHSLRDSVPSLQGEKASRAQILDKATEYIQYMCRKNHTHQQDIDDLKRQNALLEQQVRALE

Experiments:
SL-R5C-MAX2 R25C [1] = target: SL-R5C-MAX2 R25C (UniProt P61244); experiment: EPR (CW and DEER); conditions: MAX2:DNA 1:1, DEER on vitrified sample with 15% glycerol; recombinant protein
SL-G35C-MAX2 G55C = SL-G35C-MAX2 G55C (UniProt P61244); experiment: EPR (DEER); conditions: MAX2:DNA 1:1, holo-state, vitrified with 15% glycerol; recombinant protein
SL-R55C-MAX2 R75C = SL-R55C-MAX2 R75C (UniProt P61244); experiment: EPR (DEER); conditions: MAX2:DNA 1:1, holo-state, vitrified with 15% glycerol; recombinant protein
SL-R5C-MAX2 R25C [2] = target: SL-R5C-MAX2 R25C (UniProt P61244); experiment: NMR (1H-15N HSQC/TROSY, PRE); conditions: MAX2:DNA 1:1, no residual apo-MAX2 observed; EBOX DNA:MAX2 1:1; DEER samples vitrified with 15% glycerol; recombinant protein

Measured: binding result

AAACACGTGAAA (double strand) [EBOX DNA]
binds: all assays above
